Source: the supplement of paper PMC8732350
Counter-ions that a name gives are not always drawn. ± gives the standard deviation of the averaged measurements. The list shows a part of the results. This data set is noisy: repeats of one test often differ as much as different tests do.

These molecules were tested on A549 (assay: surface PD-L1 immunofluorescence intensity relative to IFN-gamma-only control (ratio); higher = more PD-L1 expression). Details: 10 µM; exposure time 24 h; IFN-gamma 100 ng/mL.

SMILES	surface PD-L1 immunofluorescence intensity
COC(=O)C1=CCCN(C)C1 [Arecoline]	1.04
CC(CN)CC(=O)O (stereo unspecified) [3-Methyl-GABA]	0.961
Fc1ccc(C(OCCN2CCN(CCCc3ccccc3)CC2)c2ccc(F)cc2)cc1	1.0465 ± 0.00067
CC(C)(C)NCC(O)c1cc(Cl)c(N)c(Cl)c1 (stereo unspecified) [Clenbuterol hydrochloride]	1.13
CNCC(=O)c1ccc(O)c(O)c1 [Adrenalone HCl]	0.984
CC(C)(c1ccc(OCC2CO2)cc1)c1ccc(OCC2CO2)cc1 (stereo unspecified)	1.1 ± 0.018
CC(C)N(CCNC(=O)CN1CCCC1=O)C(C)C [Pramiracetam]	0.865
C[C@](O)(COc1ccc(C#N)cc1)C(=O)Nc1ccc(C#N)c(C(F)(F)F)c1 [Ostarine (MK-2866)]	1.06
CCCN(CCC)C1CCc2ccc(O)cc2C1 (stereo unspecified) [7-Hydroxy-DPAT hydrobromide]	1.09
COc1ccc(CCN2CCC(Nc3nc4ccccc4n3Cc3ccc(F)cc3)CC2)cc1 [Astemizole]	0.987
CC(=O)Nc1ccc(OC[C@](C)(O)C(=O)Nc2ccc([N+](=O)[O-])c(C(F)(F)F)c2)cc1 [Andarine (GTX-007)]	1.04
Oc1cc2c(cc1O)[C@H]1c3ccccc3CN[C@@H]1CC2 (racemic) [Dihydrexidine hydrochloride]	1.01
BrC1C(Br)C(Br)C(Br)C(Br)C1Br (stereo unspecified) [1,2,3,4,5,6-Hexabromocyclohexane]	0.971
CCN(CC)C(C)C(=O)c1ccccc1 (stereo unspecified) [Amfepramone hydrochloride]	0.947
COC(=O)/C=C/C(=O)N[C@@H]1CC[C@@]2(O)[C@H]3Cc4ccc(O)c5c4[C@@]2(CCN3CC2CC2)[C@H]1O5	1.05
O=C1CCCN1CC#CCN1CCCC1 [Oxotremorine sesquifumarate]	0.93
O[C@@H]1CCCC[C@H]1N1CCC(c2ccccc2)CC1 [L(-)-vesamicol hydrochloride]	1.09
C[N+]1([O-])[C@@H]2C[C@@H](OC(=O)[C@H](CO)c3ccccc3)C[C@H]1[C@@H]1O[C@@H]12 (stereo partly specified) [Scopolamin-N-oxide hydrobromide]	0.918
Oc1cc(Cl)ccc1Oc1ccc(Cl)cc1Cl [Triclosan]	1.13
CC1(C)C(C=C(Cl)Cl)C1C(=O)OC(C#N)c1cccc(Oc2ccccc2)c1 (stereo unspecified) [Cypermethrin]	1.07
N#CC(C#N)=Cc1ccc(O)cc1 [Tyrphostin 8]	0.846
Cc1ccc(C[N+](C)(C)C)o1 [5-Methylfurmethiodide]	1.01
CCCN(CCC)C1CCc2cccc(O)c2C1 (stereo unspecified) [8-Hydroxy-DPAT hydrobromide]	1.01

SMILES	surface PD-L1 immunofluorescence intensity
O=C(O)c1ccc2[nH]cc(CCCCN3CC=C(c4ccccc4)CC3)c2c1 [Carmoxirole hydrochloride]	0.976
CCN1C[C@]2(COC(=O)c3ccccc3N3C(=O)C[C@H](C)C3=O)CC[C@H](OC)[C@@]34[C@@H]5C[C@H]6[C@H](OC)[C@@H]5[C@](O)(C[C@@H]6OC)[C@](O)([C@@H](OC)[C@H]23)[C@@H]14 [Methyllycaconitine citrate]	1.12
CCN1C[C@]2(COC)[C@H](O)C[C@H](OC)[C@@]34[C@@H]5C[C@@]6(O)[C@H](OC(=O)c7ccccc7)[C@@H]5[C@@](OC(C)=O)([C@@H]([C@H](OC)[C@H]23)[C@@H]14)[C@@H](O)[C@@H]6OC [Aconitine]	1.06
C[N+]1(C)[C@@H]2C[C@@H](OC(=O)[C@H](CO)c3ccccc3)C[C@H]1[C@@H]1O[C@@H]12 [Methscopolamine (Pamine)]	1.1
C[C@]12CC[C@H](O)C[C@@H]1CC[C@@H]1[C@@H]2CC[C@]2(C)C(=O)CC[C@@H]12 [Epiandrosterone]	1
C[C@]12CC[C@H](O)C[C@@H]1CC[C@@H]1[C@@H]2CC[C@]2(C)C(=O)CC[C@@H]12	1.04
Cn1cc(C(=O)C(=O)N[C@H]2CN3CCC2CC3)c2ccccc21	1.03
N[C@@]1(C(=O)O)CC[C@@H](C(=O)O)C1	1.15
CCn1cc(C(=O)O)c(=O)c2cc3c(cc21)OCO3 [Oxolinic acid]	0.867
CN(C)C(=O)Oc1cc(OC(=O)N(C)C)cc(C(O)CNC(C)(C)C)c1 (stereo unspecified) [Bambuterol hydrochloride]	0.957
CC[C@@]1([C@@H]2O[C@@H]([C@H]3O[C@@](O)(CO)[C@H](C)C[C@@H]3C)C[C@@H]2C)CC[C@H]([C@]2(C)CC[C@]3(C[C@H](O)[C@@H](C)[C@@H]([C@@H](C)[C@@H](OC)[C@H](C)C(=O)O)O3)O2)O1 [Monensin sodium salt (Coban)]	0.966
CCN(C)C(=O)Oc1cccc([C@H](C)N(C)C)c1 [Rivastigmine]	1.08
CCC1(c2ccc(N)cc2)CCC(=O)NC1=O (stereo unspecified) [Glutethimide, para-amino]	0.894
CN1[C@@H]2CC[C@H]1C[C@@H](OC1c3ccccc3CCc3ccccc31)C2 [Deptropine citrate]	1.01
NCC(O)c1ccc(O)cc1 (racemic) [(+,-)-Octopamine hydrochloride]	1.05
Cc1nc(N)sc1CCN [Amthamine dihydrobromide]	1.08
CN1CCC(c2c[nH]c3ccc(O)cc23)CC1	1.1
CC(C)[C@@]1(NC(=O)[C@@H]2C[C@@H]3c4cccc5[nH]cc(c45)C[C@H]3N(C)C2)O[C@@]2(O)[C@@H]3CCCN3C(=O)[C@H](Cc3ccccc3)N2C1=O [Dihydroergocristine mesylate]	0.998
CC(=O)C1=C(O)[C@@H]2[C@H]3c4c[nH]c5cccc(c45)C[C@H]3C(C)(C)N2C1=O [Cyclopiazonic acid]	1.05
CC(N)Cc1c[nH]c2ccc(OCc3cccs3)cc12 (stereo unspecified) [BW 723C86 hydrochloride]	1.06
C1=C2CCCN[C@H]2[C@@H]2C[C@H]1[C@H]1CCCCN1C2 [Aloperine]	0.999
CCN[C@@H](C)Cc1cccc(C(F)(F)F)c1 [Dexfenfluramine hydrochloride]	1
CC(C)[C@@]1(O)[C@@H](OC(=O)c2ccc[nH]2)[C@@]2(O)[C@@]3(C)C[C@]4(O)O[C@@]5([C@H](O)[C@@H](C)CC[C@]35O)[C@@]2(O)[C@@]14C [Ryanodine]	1.02

Three entries from above, set out differently:
SMILES | surface PD-L1 immunofluorescence intensity
CC(=O)Nc1ccc(OC[C@](C)(O)C(=O)Nc2ccc([N+](=O)[O-])c(C(F)(F)F)c2)cc1 [Andarine (GTX-007)] | 1.04
CCN[C@@H](C)Cc1cccc(C(F)(F)F)c1 [Dexfenfluramine hydrochloride] | 1
CC(C)[C@@]1(O)[C@@H](OC(=O)c2ccc[nH]2)[C@@]2(O)[C@@]3(C)C[C@]4(O)O[C@@]5([C@H](O)[C@@H](C)CC[C@]35O)[C@@]2(O)[C@@]14C [Ryanodine] | 1.02
